Measurements reported in paper PMC9228767, “Structural and Functional Characterization of the Holliday Junction Resolvase RuvC from Deinococcus radiodurans” (Microorganisms, 2022).

Target: T1, DrRuvC (Deinococcus radiodurans) (UniProt Q9RX75)
T1 sequence (looked up, limits assumed): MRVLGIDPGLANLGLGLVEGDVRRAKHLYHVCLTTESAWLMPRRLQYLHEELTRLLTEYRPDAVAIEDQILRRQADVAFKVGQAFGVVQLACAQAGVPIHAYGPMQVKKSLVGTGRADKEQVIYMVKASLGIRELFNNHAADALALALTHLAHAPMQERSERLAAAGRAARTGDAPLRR
Test: EMSA
Conditions: Mg2+, shift disappears completely above 1.5 mM; 50 mM Tris-HCl pH 7.0, 100 mM NaCl, 1 mM EDTA, 1% glycerol, 50 nM 5'-FAM DNA, on ice 30 min, 5% native PAGE; recombinant protein; protein details: N-terminal 6xHis (pET28a NdeI/BamHI); label: 5'-FAM on one strand; folded or branched DNA

Sequence: CCACCAGAAACACGCCACAGTTTTTGTTTTGATTGCGAGGCCGTCCTACC / GGTAGGACGGCCTCGCAATCAAAACTTTTTGAGCACGCGAGATGTCAACG / CGTTGACATCTCGCGTGCTCAAAAAAAAAACAGATGCGGAGTGAAGTTCC / GGAACTTCACTCCGCATCTGTTTTTAAAAACTGTGGCGTGTTTCTGGTGG [HJ-0X]
- binding result: no binding

The exact form of at least one protein or probe is not confirmed. Negatives hold for the conditions tested. Where a protein sequence is shown, tags need not be part of it.
